Test results reported in PubChem BioAssay AID540256 (National Center for Advancing Translational Sciences (NCATS), 2011).
The whole screen tested about 300,000 compounds, of which about 3,700 (1.2%) were called active. Inconclusive means that the source gave no clear call. Such entries were picked first, then a sample of the others. The call rests on the fitted dose curve; tested in HEK293 cells. Potencies of inconclusive entries are doubtful fits and often do not repeat.
On the % scale 0 is the no-effect control and ±100 the full control effect; potency means the concentration at half of the fitted maximal effect.

Assay: qHTS for Inhibitors of binding or entry into cells for Lassa Virus; further: nearly all actives have a fitted effect of over 50% in size
Conditions: Lassa virus pseudotype entry inhibition, cell reporter; activity change, negative = inhibition: at 37.9 µM (top of the series) unless noted
With `Cc1ccc(N/C(N)=N/c2nc(C)cc(N3CCCCC3)n2)c(C)c1` the Potency was inconclusive: 15.8 µM [inhibitor, partial curve, poor fit]. With `COc1ccc(-c2cc(C(=O)Nc3c(C)n(C)n(-c4ccccc4)c3=O)c3ccccc3n2)c(OC)c1` the Potency was inconclusive: 10 µM [inhibitor, partial curve, poor fit]. With `Cc1cc(C)cc(NC(=O)c2ccc(S(=O)(=O)NCc3cccnc3)cc2)c1` the Potency was inconclusive: 2.82 µM [inhibitor, partial curve, poor fit]. With `O=C(Nc1cccc2ncccc12)c1ccc(-c2ccc(Br)cc2)o1` the “activity change, negative = inhibition” value was inactive: -0.581%. For `O=C(Cc1cn2ccsc2n1)Nc1nc2c(s1)CCCC2`, the Potency was inconclusive: 22.4 µM [inhibitor, single point]. For `COC(=O)c1ccc(COc2cccc(C)c2C)cc1`, the Potency was inconclusive: 20 µM [activator, single point]. With `CCN(CC)C(=O)C1CCC(C)(C(=O)O)C1(C)C` (stereo not given) the Potency was inconclusive: 31.6 µM [activator, partial curve, poor fit]. For `CCc1ccc(OC)c(S(=O)(=O)Nc2ccc(Cc3ccncc3)cc2)c1`, the Potency was active: 12.6 µM. With `CCOC(=O)c1[nH]c(C)c(/C(C)=N\O)c1C` the Potency was inconclusive: 0.562 µM [inhibitor, full curve, poor fit]. For `CCOc1ccc(N/C(=N/c2nc(C)cc(C)n2)NC(C)=O)cc1`, the Potency was inconclusive: 4.47 µM [inhibitor, partial curve]. In the case of `C=CCN1C(=O)/C(=C/c2ccc(OC(C)=O)c(OCC)c2[N+](=O)[O-])SC1=S`, the Potency is reported as inconclusive: 15.8 µM [inhibitor, partial curve, poor fit]. In the case of `CCOc1ccccc1NC(=O)c1c(NCc2cccs2)sc2c1CCCCC2`, the “activity change, negative = inhibition” value is reported as inactive: 0.324% [at 46.1 µM]. For `O=C1CC(Sc2ccc(Cl)cc2)C(=O)N1c1ccc2c(c1)OCCO2` (stereo not given), the “activity change, negative = inhibition” value was inactive: 3.22%. In the case of `O=C(N1CCOCC1)N1CCN(CC(O)COc2ccc3ccccc3c2)CC1` (stereo not given), the Potency is reported as inconclusive: 11.2 µM [inhibitor, partial curve, poor fit]. With `CCCCNC(=O)COC(=O)c1c2c(nc3ccccc13)CCC2` the “activity change, negative = inhibition” value was inactive: 5.71%. With `CCN1C(=O)/C(=C\c2ccc3c(c2)OCO3)C(C(=O)OC)=C1C` the “activity change, negative = inhibition” value was inactive: 12.1%. In the case of `COCCN1C(=O)/C(=C/c2cc3c(cc2Br)OCO3)NC1=S`, the “activity change, negative = inhibition” value is reported as inactive: 7.23%. For `CCCC1S/C(=N/N=C/c2ccc(OC)cc2)N(Cc2ccc(OC)cc2)C1=O` (stereo not given), the Potency was inconclusive: 10.3 µM [inhibitor, partial curve, poor fit]. With `Cc1cc(C=C2C(=O)N(C)C(=O)N(C)C2=O)c(C)n1-c1ccccc1` the “activity change, negative = inhibition” value was inactive: 12.6%. With `COC(=O)NC(C)N1C(=O)C2C3C=CC(C3)C2C1=O` (stereo not given) the “activity change, negative = inhibition” value was inactive: 2.98% [at 46.1 µM]. With `S=C(NCCNC(=S)Nc1ccccc1Cl)Nc1ccccc1Cl` the Potency was inconclusive: 12.6 µM [inhibitor, partial curve, poor fit]. In the case of `COC(=O)c1ccc(CSc2nnc(NC(C)C)s2)o1`, the Potency is reported as inconclusive: 35.5 µM [inhibitor, single point]. In the case of `COc1ccc(-c2csc(CCn3nc(C)cc3C)n2)cc1`, the Potency is reported as inconclusive: 35.5 µM [inhibitor, single point]. With `O=C(N/N=C1\CC(c2ccccc2)Oc2ccccc21)c1ccc(O)cc1` (stereo not given) the Potency was inconclusive: 2.51 µM [inhibitor, full curve]. In the case of `Cc1ccc(NC(=O)CN2CCCN(S(=O)(=O)c3ccc(Br)s3)CC2)cc1`, the Potency is reported as inconclusive: 35.5 µM [inhibitor, single point]. In the case of `CN(C)S(=O)(=O)c1cccc(NC(=S)NC2CCCCC2)c1`, the Potency is reported as inconclusive: 35.5 µM [inhibitor, single point]. With `CC(=O)Nc1ccc(NC(=O)c2cc3sccc3n2Cc2ccc(Cl)cc2)cc1` the Potency was inconclusive: 0.794 µM [inhibitor, full curve, poor fit]. For `CN(C)S(=O)(=O)c1cccc(N=C2NN=C(c3ccccc3)CS2)c1`, the Potency was inconclusive: 22.4 µM [inhibitor, partial curve, poor fit]. In the case of `O=C(COC(=O)c1ccccc1NS(=O)(=O)c1cccs1)NCC12CC3CC(CC(C3)C1)C2`, the Potency is reported as inconclusive: 16.4 µM [inhibitor, single point]. In the case of `N=c1sccn1CC(=O)NCCc1ccc(Cl)cc1Cl`, the “activity change, negative = inhibition” value is reported as inactive: 2.39%. With `CCOC(=O)N/N=C(C)/C=C/c1ccco1` the Potency was inconclusive: 35.5 µM [inhibitor, single point]. For `C=CCn1c(COc2ccccc2)nc2ccccc21`, the “activity change, negative = inhibition” value was inactive: 0.0047% [at 46.1 µM]. For `CCOC(=O)c1ccc(N=C2SC(C(=O)NC)CC(=O)N2Cc2ccc(F)cc2)cc1` (stereo not given), the Potency was inconclusive: 7.94 µM [inhibitor, partial curve, poor fit]. In the case of `O=C1Nc2ccccc2Nc2ccccc21`, the Potency is reported as inconclusive: 7.94 µM [inhibitor, partial curve, poor fit]. In the case of `Cc1cc(/C=C2/NC(=S)NC2=O)c(C)n1-c1cccnc1`, the “activity change, negative = inhibition” value is reported as inactive: -18.5%. With `CCCS(=O)(=O)N1CCC(C(=O)c2cccc(C(F)(F)F)c2)CC1` the “activity change, negative = inhibition” value was inactive: -3.28%. For `O=C(c1cc(COc2ccc(F)cc2Cl)on1)N1C[C@H]2CC[C@H]1C2`, the Potency was inconclusive: 15.8 µM [inhibitor, single point]. With `COc1ccc(N(CC(=O)Nc2ccccc2F)S(=O)(=O)c2ccc(C)c([N+](=O)[O-])c2)cc1` the Potency was inconclusive: 32.6 µM [inhibitor, single point]. For `COc1ccc(C2CC3(CC(C)(C)NC(=S)N3)Oc3cc(O)cc(C)c32)cc1` (stereo not given), the Potency was inconclusive: 0.282 µM [inhibitor, full curve, poor fit]. In the case of `CCC(=O)Nc1ccccc1C(=O)OCC(=O)c1ccc2ccccc2c1`, the “activity change, negative = inhibition” value is reported as inactive: 3.17%. In the case of `COc1ccc(C)cc1NC(=O)c1cccc(-c2ccc(OC(C)=O)cc2)c1`, the “activity change, negative = inhibition” value is reported as inactive: -17.4%. For `CCCCn1c(O)c(N=Nc2ccccn2)c2ccccc21`, the Potency was inconclusive: 17.8 µM [inhibitor, single point]. With `Cc1ccc(C2(C)NC(=O)N(CC(=O)NC(C)c3ccccc3)C2=O)cc1` (stereo not given) the Potency was inconclusive: 10 µM [inhibitor, partial curve]. For `COc1ccc(NC(=O)CN2CCCCC2)cc1S(=O)(=O)N1CCCCC1`, the Potency was inconclusive: 4.47 µM [inhibitor, partial curve]. In the case of `CC(C)NC(=O)c1cc2cc([N+](=O)[O-])ccc2s1`, the “activity change, negative = inhibition” value is reported as inactive: -18.3%. With `Cc1ccc(Cn2nc(-c3ccccc3)nc2-c2ccccc2)cc1` the Potency was inconclusive: 3.16 µM [activator, partial curve, poor fit]. In the case of `COC(=O)Cn1c(=O)c2c(nc(Br)n2Cc2ccccc2Cl)n(C)c1=O`, the “activity change, negative = inhibition” value is reported as inactive: -18.1%. In the case of `COc1ccc(CN2C(=O)NC3(CCCC3)C2=O)cc1F`, the “activity change, negative = inhibition” value is reported as inactive: -3.1% [at 46.1 µM]. For `COc1ccc(C(=O)NC(=S)Nc2ccccc2N2CCN(S(C)(=O)=O)CC2)cc1OC`, the Potency was inconclusive: 20.6 µM [inhibitor, single point]. With `C=CCNC(=O)/C(C#N)=C/c1c(N(Cc2ccccc2)Cc2ccccc2)nc2ccccn2c1=O` the Potency was inconclusive: 22.4 µM [inhibitor, partial curve, poor fit]. For `O=S(=O)(NCC(c1cccnc1)N1CCN(Cc2ccccc2)CC1)c1cc(F)ccc1F` (stereo not given), the Potency was inconclusive: 22.4 µM [activator, partial curve, poor fit]. For `CCc1c(C)sc2c1CCN(C(=O)Nc1cc(Cl)c(OC)cc1OC)C2c1ccccc1` (stereo not given), the “activity change, negative = inhibition” value was inactive: -1.45% [at 46.1 µM]. With `COC(=O)Cc1ccc(NC(=O)c2ccc3c(c2)C(=O)N(Cc2ccco2)C3=O)cc1` the “activity change, negative = inhibition” value was inactive: 10%. For `CCC(=O)N1CCc2cc(CNS(=O)(=O)c3ccc(NC(=O)CC(C)C)cc3)ccc21`, the “activity change, negative = inhibition” value was inactive: 3.46% [at 46.1 µM]. For `C=CCn1c2ccccc2c2nnc(SCC(=O)Nc3cc(C)on3)nc21`, the “activity change, negative = inhibition” value was inactive: -17.1%. In the case of `CCN1CCN(Cc2ccc(OCc3ccccc3)cc2)CC1`, the Potency is reported as inconclusive: 29.1 µM [inhibitor, single point]. For `CCN1CCN(C(c2ccccn2)c2c(NC(=O)c3ccccc3)sc(C)c2C)CC1` (stereo not given), the Potency was inconclusive: 35.5 µM [inhibitor, single point]. With `COc1ccccc1-c1noc(-c2ccc(NCc3cccnc3)c([N+](=O)[O-])c2)n1` the “activity change, negative = inhibition” value was inactive: 5.33% [at 46.1 µM]. With `Cc1cc(C)cc(NS(=O)(=O)c2ccc(NC(=S)NC(=O)c3cccs3)cc2)c1` the Potency was active: 14.1 µM. In the case of `Cn1c(SC2CCCCC2=O)nnc1-c1ccccc1F` (stereo not given), the “activity change, negative = inhibition” value is reported as inactive: 5.22%. In the case of `Clc1cccc(CN2CCCCCC2)c1Cl`, the Potency is reported as inconclusive: 35.5 µM [inhibitor, single point]. In the case of `COc1ccc(CNC(=O)CCc2c(C)nc3nc(CNC(=O)OC(C)(C)C)nn3c2C)cc1`, the “activity change, negative = inhibition” value is reported as inactive: 11.5% [at 46.1 µM]. In the case of `CCOc1ccc(NCc2nnc(SCc3ccc(Cl)cc3)n2-c2ccccc2)cc1`, the Potency is reported as inconclusive: 17.8 µM [inhibitor, partial curve, poor fit]. With `c1csc(C(c2nnnn2C2CCCC2)N2CCCC3(CCCCC3)C2)c1` (stereo not given) the Potency was inconclusive: 15.8 µM [inhibitor, single point]. In the case of `CN(C)c1ccc(/C=C/c2cc[n+](C)cc2)cc1`, the Potency is reported as inconclusive: 25.1 µM [inhibitor, single point]. In the case of `CN1/C(=C\C(=O)c2oc3ccccc3c2N)C(C)(C)c2ccccc21`, the Potency is reported as inconclusive: 17.8 µM [inhibitor, single point]. For `O=C(O)C(CO)N=Cc1c(O)c2ccccc2oc1=O` (stereo not given), the Potency was inconclusive: 35.5 µM [inhibitor, single point]. With `CCCNC(=O)C1CCN(Cc2cc3ccccc3n2Cc2ccccc2)CC1` the Potency was inconclusive: 8.91 µM [inhibitor, partial curve, poor fit]. With `Cc1ncsc1C(=O)N1N=C2/C(=C/c3ccccc3)CCCC2C1c1ccccc1` (stereo not given) the Potency was inconclusive: 10 µM [inhibitor, partial curve, poor fit]. With `CN1C2CCC1CC(OC(c1ccccc1)c1ccccc1N)C2` (stereo not given) the Potency was inconclusive: 11.6 µM [inhibitor, partial curve, poor fit].
